Literature values in PMC11170107, “Development of a new hazard scoring system in primary neuronal cell cultures for drug-induced acute neuronal toxicity identification in early drug discovery” (Frontiers in Pharmacology, 2024).

Columns and labels:
[1] = Supplementary Table S1; cited from earlier work
[2] = seizure ADR frequency in SIDER; ref Campillos et al., 2008; Kuhn et al., 2010; cited from earlier work

## CN1C(=O)CN=C(c2ccccc2)c2cc(Cl)ccc21 [Diazepam]
[1]
  Free Cmax highest: 59 nM
[2]
  SIDER ADR on-/off-label: no frequency information
